{
  "source": "paper PMC3126847",
  "binders": {"B1": {"name": "VapB antitoxin Rv0616A (protein, UniProt P9WJ37 1-75)", "chain": "MRTTIDLPQDLHKQALAIARDTHRTLSETVADLMRRGLAANRPTALSSDPRTGLPLVSVGTVVTSEDVRSLEDEQ"}},
  "target": "T1, VapC Rv0617 (Mycobacterium tuberculosis H37Ra) (UniProt P9WF79)",
  "T1 sequence": "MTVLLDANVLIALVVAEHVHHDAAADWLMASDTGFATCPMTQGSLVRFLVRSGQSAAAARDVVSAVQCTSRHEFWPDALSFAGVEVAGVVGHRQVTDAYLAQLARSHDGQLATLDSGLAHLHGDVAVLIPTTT",
  "assay": "co-purification of a co-expressed complex",
  "note": "No constants are given. Whether binding was seen depends on the method and setting. Some binding calls cover weakened binding; strength is not graded here. Where a sequence is shown, tags or fusion partners need not be part of it.",
  "data": [
    {"binder": "B1", "values": [
      {"measurement": "binding", "result": "binds"}
    ]}
  ]
}
